From paper doi:10.1101/2023.08.29.555105
Where a chain is given by its changes, count along the chain named. Numbers in names are those of the source. Results are given in words; binding and its absence hold for the method and conditions named. In cells and extracts the contact can be indirect. Some binding calls cover weakened binding; strength is not graded here. For some of these results: Tags and fused reporters may be left off the sequences shown. One block for each binder: values may come before it.

Assays:
[1] = target: dsRNA-activated protein kinase R (PKR) (human (endogenous in A549)) (UniProt P19525); assay: co-IP
[2] = target: T1, dsRNA-activated protein kinase R (PKR) (human (endogenous in A549)), P19525; assay: co-IP; conditions: remark: other sources report otherwise
T1 chain: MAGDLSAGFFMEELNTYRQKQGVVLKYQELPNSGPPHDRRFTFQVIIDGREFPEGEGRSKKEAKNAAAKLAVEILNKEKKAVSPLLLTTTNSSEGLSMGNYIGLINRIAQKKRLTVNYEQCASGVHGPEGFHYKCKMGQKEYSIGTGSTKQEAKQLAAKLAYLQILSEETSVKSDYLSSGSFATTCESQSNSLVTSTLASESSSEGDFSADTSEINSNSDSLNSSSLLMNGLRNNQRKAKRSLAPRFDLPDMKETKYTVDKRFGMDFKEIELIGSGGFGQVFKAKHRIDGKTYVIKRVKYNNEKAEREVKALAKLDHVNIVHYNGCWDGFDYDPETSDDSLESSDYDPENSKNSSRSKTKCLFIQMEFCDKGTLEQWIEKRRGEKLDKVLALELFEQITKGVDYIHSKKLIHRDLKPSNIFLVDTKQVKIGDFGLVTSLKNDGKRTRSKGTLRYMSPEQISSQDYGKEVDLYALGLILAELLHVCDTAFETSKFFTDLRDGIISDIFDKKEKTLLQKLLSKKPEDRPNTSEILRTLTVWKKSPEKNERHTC

B1: ADAR1 p150 (adenosine deaminase acting on RNA 1, IFN-inducible p150 isoform) (protein, UniProt P55265-1 1-1226)
chain: MNPRQGYSLSGYYTHPFQGYEHRQLRYQQPGPGSSPSSFLLKQIEFLKGQLPEAPVIGKQTPSLPPSLPGLRPRFPVLLASSTRGRQVDIRGVPRGVHLRSQGLQRGFQHPSPRGRSLPQRGVDCLSSHFQELSIYQDQEQRILKFLEELGEGKATTAHDLSGKLGTPKKEINRVLYSLAKKGKLQKEAGTPPLWKIAVSTQAWNQHSGVVRPDGHSQGAPNSDPSLEPEDRNSTSVSEDLLEPFIAVSAQAWNQHSGVVRPDSHSQGSPNSDPGLEPEDSNSTSALEDPLEFLDMAEIKEKICDYLFNVSDSSALNLAKNIGLTKARDINAVLIDMERQGDVYRQGTTPPIWHLTDKKRERMQIKRNTNSVPETAPAAIPETKRNAEFLTCNIPTSNASNNMVTTEKVENGQEPVIKLENRQEARPEPARLKPPVHYNGPSKAGYVDFENGQWATDDIPDDLNSIRAAPGEFRAIMEMPSFYSHGLPRCSPYKKLTECQLKNPISGLLEYAQFASQTCEFNMIEQSGPPHEPRFKFQVVINGREFPPAEAGSKKVAKQDAAMKAMTILLEEAKAKDSGKSEESSHYSTEKESEKTAESQTPTPSATSFFSGKSPVTTLLECMHKLGNSCEFRLLSKEGPAHEPKFQYCVAVGAQTFPSVSAPSKKVAKQMAAEEAMKALHGEATNSMASDNQPEGMISESLDNLESMMPNKVRKIGELVRYLNTNPVGGLLEYARSHGFAAEFKLVDQSGPPHEPKFVYQAKVGGRWFPAVCAHSKKQGKQEAADAALRVLIGENEKAERMGFTEVTPVTGASLRRTMLLLSRSPEAQPKTLPLTGSTFHDQIAMLSHRCFNTLTNSFQPSLLGRKILAAIIMKKDSEDMGVVVSLGTGNRCVKGDSLSLKGETVNDCHAEIISRRGFIRFLYSELMKYNSQTAKDSIFEPAKGGEKLQIKKTVSFHLYISTAPCGDGALFDKSCSDRAMESTESRHYPVFENPKQGKLRTKVENGEGTIPVESSDIVPTWDGIRLGERLRTMSCSDKILRWNVLGLQGALLTHFLQPIYLKSVTLGYLFSQGHLTRAICCRVTRDGSAFEDGLRHPFIVNHPKVGRVSIYDSKRQSGKTKETSVNWCLADGYDLEILDGTRGTVDGPRNELSRVSKKNIFLLFKKLCSFRYRRDLLRLSYGEAKKAARDYETAKNYFKKGLKDMGYGNWISKPQEEKNFYLCPV
binding [1]: binds

B3: HA-tagged human ADAR1 p150 K777E (protein, UniProt P55265-1 1-1226)
chain: B1 chain with K777E
binding [1]: no binding

Next, values leading:

binding [1]: binds
B2: HA-tagged human ADAR1 p150, wild type (protein, UniProt P55265-1 1-1226)
chain: B1 chain

binding [2]: binds
B4: ADAR1 p110 (adenosine deaminase acting on RNA 1, constitutive p110 isoform), P55265-5 1-931 (protein)
chain: MAEIKEKICDYLFNVSDSSALNLAKNIGLTKARDINAVLIDMERQGDVYRQGTTPPIWHLTDKKRERMQIKRNTNSVPETAPAAIPETKRNAEFLTCNIPTSNASNNMVTTEKVENGQEPVIKLENRQEARPEPARLKPPVHYNGPSKAGYVDFENGQWATDDIPDDLNSIRAAPGEFRAIMEMPSFYSHGLPRCSPYKKLTECQLKNPISGLLEYAQFASQTCEFNMIEQSGPPHEPRFKFQVVINGREFPPAEAGSKKVAKQDAAMKAMTILLEEAKAKDSGKSEESSHYSTEKESEKTAESQTPTPSATSFFSGKSPVTTLLECMHKLGNSCEFRLLSKEGPAHEPKFQYCVAVGAQTFPSVSAPSKKVAKQMAAEEAMKALHGEATNSMASDNQPEGMISESLDNLESMMPNKVRKIGELVRYLNTNPVGGLLEYARSHGFAAEFKLVDQSGPPHEPKFVYQAKVGGRWFPAVCAHSKKQGKQEAADAALRVLIGENEKAERMGFTEVTPVTGASLRRTMLLLSRSPEAQPKTLPLTGSTFHDQIAMLSHRCFNTLTNSFQPSLLGRKILAAIIMKKDSEDMGVVVSLGTGNRCVKGDSLSLKGETVNDCHAEIISRRGFIRFLYSELMKYNSQTAKDSIFEPAKGGEKLQIKKTVSFHLYISTAPCGDGALFDKSCSDRAMESTESRHYPVFENPKQGKLRTKVENGEGTIPVESSDIVPTWDGIRLGERLRTMSCSDKILRWNVLGLQGALLTHFLQPIYLKSVTLGYLFSQGHLTRAICCRVTRDGSAFEDGLRHPFIVNHPKVGRVSIYDSKRQSGKTKETSVNWCLADGYDLEILDGTRGTVDGPRNELSRVSKKNIFLLFKKLCSFRYRRDLLRLSYGEAKKAARDYETAKNYFKKGLKDMGYGNWISKPQEEKNFYLCPV
